Results on two molecules are retold here after article doi:10.1101/2020.09.15.298083.

Experiment [1] concerns the target T1, CEP63 (human (endogenous in U87, 293T/17 and HeLa)) (UniProt Q96MT8).
T1 sequence: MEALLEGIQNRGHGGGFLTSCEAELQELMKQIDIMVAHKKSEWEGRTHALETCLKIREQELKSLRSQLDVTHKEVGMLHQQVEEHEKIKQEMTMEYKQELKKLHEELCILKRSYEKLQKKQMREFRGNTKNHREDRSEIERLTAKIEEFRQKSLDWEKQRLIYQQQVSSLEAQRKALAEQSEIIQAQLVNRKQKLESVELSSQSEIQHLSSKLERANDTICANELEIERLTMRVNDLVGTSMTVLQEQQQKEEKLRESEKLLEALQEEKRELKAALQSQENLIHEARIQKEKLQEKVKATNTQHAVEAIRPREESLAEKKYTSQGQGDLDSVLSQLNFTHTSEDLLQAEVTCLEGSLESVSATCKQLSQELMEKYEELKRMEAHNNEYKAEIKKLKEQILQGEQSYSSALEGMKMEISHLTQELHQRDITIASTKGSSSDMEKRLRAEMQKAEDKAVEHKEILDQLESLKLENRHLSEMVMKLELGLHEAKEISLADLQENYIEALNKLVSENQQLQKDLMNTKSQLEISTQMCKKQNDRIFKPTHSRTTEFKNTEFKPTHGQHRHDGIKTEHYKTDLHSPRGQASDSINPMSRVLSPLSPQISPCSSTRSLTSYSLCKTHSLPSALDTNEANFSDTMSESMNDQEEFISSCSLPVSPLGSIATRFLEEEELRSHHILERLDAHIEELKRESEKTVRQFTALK
Put plainly: co-IP.

In experiment [2] the target is Myc-tagged Brazilian ZIKV NS3 (Zika virus (Brazilian strain)). Nature of the experiment: co-IP.

No constants are given. Whether binding was seen depends on the method and setting. Binding seen in cells or lysates may run through a third protein. Binding can be weak; no strength is given.

With “ZIKV nonstructural protein NS3 (produced by infection with ZIKV strain PRVABC59) (Zika virus (strain PRVABC59))”, in experiment [1], the binding entry is “binds”.

B1: CEP63 (protein, UniProt Q96MT8 1-703)
chain: T1 sequence
On to B1, for which, in experiment [2], the binding result is “binds”.
